From PubChem BioAssay AID493014 (National Center for Advancing Translational Sciences (NCATS), 2011)
The other results are listed elsewhere or left out. Shown are side measurements of this screen, not its main read-out; they come without a call. Compounds called inactive in the main read-out are mostly missing here. The note in brackets gives the kind of curve behind each potency; many fits are weak.

Experiment: qHTS Assay to Find Inhibitors of Chronic Active B-Cell Receptor Signaling
Conditions: ABC-DLBCL IkBa-CBG/CBR reporter, luminescence ratio (green luciferase fused to IkBa over red control in TMD8 lymphoma cells), 4 h
Method in brief: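 Cell line TMD8 (human ABC DLBCL), stably expressing tet-inducible CBG68-IkBa fusion and CBR; IMDM/0.5% FBS; cpd up to 46 uM; dox induction, 4 h, 37C/5% CO2; dual luminescence; green/red ratio; MG132 control.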

[1] = measured here: CBR red luminescence, cell number

Row | SMILES | AC50 [1] | AC50 (measured here: IkBa-CBG green luminescence)
1 | O=C(NC1CCCCCC1)c1cccnc1Sc1ccc(Cl)cc1 | 1.03 µM [rising, full curve] | –
2 | Cc1cccc(NC(=O)CNC(=O)c2ccccc2Cl)n1 | 14.1 µM [falling, partial curve] | –
3 | COC(=O)C(C(=O)OC)N1C(=O)CCC1=O | 0.651 µM [falling, full curve, poor fit] | –
4 | COc1cccc2cc(C(=O)NCCc3ccccc3)c(=O)oc12 | 15.8 µM [falling, partial curve, poor fit] | –
5 | COc1cc(OC)c(OC)cc1/C=C/c1nc2cc3ccccc3cc2c(=O)n1-c1ccc(F)cc1F | 2.24 µM [falling, full curve] | –
6 | Cc1ccc(S(=O)(=O)/N=C2/C=C(C3C(=O)CC(C)(C)CC3=O)C(=O)c3ccccc32)cc1 | 18.4 µM [falling, single point] | 25.9 µM [rising, partial curve, poor fit]
7 | CCCCn1c(-c2csc3c2CCC(C)C3)n[nH]c1=S (centres undefined) | 35.5 µM [rising, partial curve, poor fit] | –
8 | CCCCOC(=O)C1=C(C)Nc2ncnn2C1c1cccc(OC)c1 (centres undefined) | 5.62 µM [rising, single point] | –
9 | Cc1ccc(C)c(OCC(=O)NCCNC(=O)COc2cc(C)ccc2C)c1 | 2.31 µM [rising, partial curve, poor fit] | –
10 | COC(=O)c1ccc(C(=O)OC)c(NC(=O)c2cnc3n(c2=O)CCS3)c1 | 32.6 µM [rising, partial curve, poor fit] | –
11 | O=C1c2cccc(OCc3ccc(F)cc3)c2CCN1Cc1ccc(F)cc1 | 16.4 µM [falling, partial curve, poor fit] | –
12 | CCN(CC)C(=O)c1cc(-c2ccc3c(c2)OCO3)on1 | 31.6 µM [falling, single point] | –
13 | COc1ccccc1CNC(=O)COC(=O)c1n[nH]c2ccccc12 | 6.51 µM [falling, partial curve, poor fit] | –
14 | Cc1cc(C(=O)Nc2nc3c(s2)CCCC3)cs1 | 10 µM [falling, partial curve] | –
15 | C=CCSc1nc(N)c(C(=O)Nc2ccccc2)cc1C#N | 2.06 µM [falling, partial curve, poor fit] | –
16 | COc1ccc2cc(C(=O)/C=C/c3cc(OC)c(OC)c(OC)c3)ccc2c1 | 10 µM [falling, partial curve, poor fit] | –
17 | c1cncc(-c2csc(-c3cccnc3)n2)c1 | 0.708 µM [rising, full curve, poor fit] | –
18 | Cc1nc2c(-c3ccccc3)cnn2c(N2CCOCC2)c1C | 3.98 µM [rising, full curve, poor fit] | –

Random excerpt: two records from the list, in no set order.
Row | SMILES | AC50 [1] | AC50 (measured here: IkBa-CBG green luminescence)
14 | Cc1cc(C(=O)Nc2nc3c(s2)CCCC3)cs1 | 10 µM [falling, partial curve] | –
4 | COc1cccc2cc(C(=O)NCCc3ccccc3)c(=O)oc12 | 15.8 µM [falling, partial curve, poor fit] | –
